Source: article PMC6027665, “Synthesis and Cytotoxicity Evaluation of Novel Asymmetrical Mono-Carbonyl Analogs of Curcumin (AMACs) against Vero, HeLa, and MCF7 Cell Lines” (Scientia Pharmaceutica, 2018)

Columns and labels:
[1] = test system: MCF7 cell lines (human estrogen-dependent breast carcinoma, ATCC HTB-22); assay: MTT proliferation assay, MCF7 cell lines; type: cell-based; settings: Selectivity Index = IC50 value normal cell (Vero)/IC50 value cancer cell (MCF7)
Procedure: (§1) The cytotoxic activity of the synthesized compounds was evaluated against human cervix carcinoma (HeLa, ATCC CCL-2) cell lines, human estrogen-dependent breast carcinoma (MCF7, ATCC HTB-22) cell lines, and kidney of an African green monkey (Vero, ATCC CCL-81) as a normal cell lines using the methyl thiazolyl tetrazolium (MTT) method conducted according to the MTT assay protocol published by the American Type Culture Collection (ATCC). Cisplatin was used as a reference drug. Curcumin was also evaluated as a comparative compound on the tests against Vero and MCF7 cell lines, and doxorubicin was evaluated as an additional comparator on the test against MCF7 cell lines. The assay detects the reduction of yellow tetrazolium (MTT) by metabolically active cells to be purple formazan measured using spectrophotometry.
(§2) The cells lines were seeded into 96-well plates at a density of 5000 cells per well, replenished with growth media consisting of Dulbecco’s Modified Eagle’s medium (D-MEM) for Vero or Roswell Park Memorial Institute (RPMI) 1640 medium for MCF7 and HeLa, 5% Fetal Bovine Serum (FBS), 100 U/mL penicillin, and 100 μg/mL streptomycin. The cells were incubated at 37 °C in 5% CO2 for 24 h. Then, a series concentrations of the tested compounds (1.5, 3.1, 6.2, 12.5, 25.0, 50.0, 100.0, and 200.0 µg/mL) were added to each well of the plate and incubated for 48 h. After that, 10 μL fresh solution of MTT reagent was added to each well, and the plate was incubated in a CO2 incubator at 37 °C for 4 h. After the purple precipitate was obtained, the cells were dissolved in ethanol and their optical density was recorded at 595 nm. The experiment was performed in triplicate. Percent proliferation inhibition was calculated using the following formula: Viability cells inhibition (%)=100−[(At−Ab)/(Ac−Ab)] ×100%
(§3) At = absorption of test compound, Ab = absorption of blank, Ac = absorption of control.
(§4) The concentration of the synthesized compounds required to inhibit 50% of the growth of the cell lines (IC50 values) was calculated by analyzing the relationship between concentrations and percent (%) inhibitions using GraphPad Prism 7 version 7.00 for Windows, GraphPad Software, La Jolla, CA, USA, www.graphpad.com.

[2] = test system: HeLa cell lines (human cervix carcinoma, ATCC CCL-2); assay: MTT proliferation assay, HeLa cell lines; type: cell-based; settings: Selectivity Index = IC50 value normal cell (Vero)/IC50 value cancer cell (Hela)
Procedure: as §1, §2, §3, §4

SMILES	SI MCF7 [1]	SI Hela [2]
CCN(CC)Cc1cc(/C=C2\CCC/C(=C\c3ccc(C)cc3)C2=O)cc(OC)c1O [Compound 2e, (2E,6E)-2-({3-[(diethylamino)methyl]-4-hydroxy-5-methoxyphenyl}methylidene)-6-[(4-methylphenyl)methylidene]cyclohexan-1-one]	1.03	<1
N.N.[Cl][Pt][Cl] [Cisplatin, reference compound]	6.61	1.26
CCN(CC)Cc1cc(/C=C2\CCC/C(=C\c3ccc(F)cc3)C2=O)cc(OC)c1O [Compound 2c, (2E,6E)-2-({3-[(diethylamino)methyl]-4-hydroxy-5-methoxyphenyl}methylidene)-6-[(4-fluorophenyl)methylidene]cyclohexan-1-one]	–	<1
COc1ccc(/C=C2\CCC/C(=C\c3ccc(O)c(OC)c3)C2=O)cc1 [Compound 1b, (2E,6E)-2-[(4-hydroxy-3-methoxyphenyl)methylidene]-6-[(4-methoxyphenyl)methylidene] cyclohexan-1-one]	1.96	<1
COc1cc(/C=C2\CCC/C(=C\c3ccc(C)cc3)C2=O)ccc1O [Compound 1e, (2E,6E)-2-[(4-hydroxy-3-methoxyphenyl)methylidene]-6-[(4-methylphenyl)methylidene] cyclohexan-1-one]	1.55	<1
CCN(CC)Cc1cc(/C=C2\CCC/C(=C\c3ccccc3)C2=O)cc(OC)c1O [Compound 2a, (2E,6E)-2-({3-[(diethylamino)methyl]-4-hydroxy-5-methoxyphenyl}methylidene)-6-(phenylmethylidene)cyclohexan-1-one]	–	<1
CCN(CC)Cc1cc(/C=C2\CCC/C(=C\c3ccc(OC)cc3)C2=O)cc(OC)c1O [Compound 2b, (2E,6E)-2-({3-[(diethylamino)methyl]-4-hydroxy-5-methoxyphenyl}methylidene)-6-[(4-methoxyphenyl)methylidene]cyclohexan-1-one]	–	<1
COc1cc(/C=C/C(=O)CC(=O)/C=C/c2ccc(O)c(OC)c2)ccc1O [Curcumin]	3.00	–
COc1cc(/C=C2\CCC/C(=C\c3ccc(F)cc3)C2=O)ccc1O [Compound 1c, (2E,6E)-2-[(4-hydroxy-3-methoxyphenyl)methylidene]-6-[(4-fluorophenyl)methylidene] cyclohexan-1-one]	–	<1
COc1cc(/C=C2\CCC/C(=C\c3ccc(Cl)cc3)C2=O)ccc1O [Compound 1d, (2E,6E)-2-[(4-hydroxy-3-methoxyphenyl)methylidene]-6-[(4-chlorophenyl)methylidene] cyclohexan-1-one]	<1	<1
CCN(CC)Cc1cc(/C=C2\CCC/C(=C\c3ccc(Cl)cc3)C2=O)cc(OC)c1O [Compound 2d, (2E,6E)-2-({3-[(diethylamino)methyl]-4-hydroxy-5-methoxyphenyl}methylidene)-6-[(4-chlorophenyl)methylidene]cyclohexan-1-one]	–	<1
COc1cc(/C=C2\CCC/C(=C\c3ccccc3)C2=O)ccc1O [Compound 1a, (2E,6E)-2-[(4-hydroxy-3-methoxyphenyl)methylidene]-6-(phenylmethylidene)cyclohexan-1-one]	<1	<1
